# Results published in PubChem BioAssay AID504847 (National Center for Advancing Translational Sciences (NCATS), 2011).
# By UniProt entry, the sequences of proteins in these tests, tags left out. Where a name states a change or a piece, a line headed by the entry shows the natural chain unless it says otherwise.
# UniProt P11473: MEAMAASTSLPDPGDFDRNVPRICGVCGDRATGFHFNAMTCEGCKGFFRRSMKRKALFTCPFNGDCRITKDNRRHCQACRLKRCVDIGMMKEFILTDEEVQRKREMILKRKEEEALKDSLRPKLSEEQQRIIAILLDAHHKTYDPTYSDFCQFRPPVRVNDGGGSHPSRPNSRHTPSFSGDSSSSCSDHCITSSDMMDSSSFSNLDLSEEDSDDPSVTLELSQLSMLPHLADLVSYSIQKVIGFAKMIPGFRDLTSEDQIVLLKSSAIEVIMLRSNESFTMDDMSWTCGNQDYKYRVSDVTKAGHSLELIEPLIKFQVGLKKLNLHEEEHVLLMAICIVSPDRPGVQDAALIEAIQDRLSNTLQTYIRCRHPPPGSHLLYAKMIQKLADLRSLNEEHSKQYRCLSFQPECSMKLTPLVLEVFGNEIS
# Among all 400,000 compounds or so, about 3,700 (0.93%) were called active. This list was built around the results that the source calls inconclusive (neither active nor inactive); the mix of calls is not that of the screen. The call rests on the fitted dose curve; in most records, active means well fitted inhibition curve with a large enough effect; inconclusive means small, poorly fitted or top-dose-only effect, or another doubt; inactive means no such curve, though single readings can be large or run the other way. Potencies beside an inconclusive call are fits to weak or partial responses and may not hold up.
# Molecular target: Vitamin D3 receptor (Homo sapiens) (UniProt P11473)
# Assay: Inhibitors of the vitamin D receptor (VDR): qHTS
# Conditions: VDR-SRC2-3 peptide fluorescence polarization, 2 h; max response, negative = inhibition: active compounds read low
# In short: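 Measured by FP: displacement of SRC2-3 coactivator peptide from VDR by library compounds, following a two-hour ambient incubation.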
# On the % scale 0 is the no-effect control and ±100 the full control effect; potency means the concentration at half of the fitted maximal effect.
Compound,Potency,"max response, negative = inhibition"
C/C(CC(=O)Nc1ccc(N(C)C)cc1)=N\NC(=O)c1ccc([N+](=O)[O-])cc1Cl,active: 79.4 µM,
O=C(/C=C/c1ccccc1Cl)c1ccccc(=O)c1O,active: 28.2 µM,
Cc1cccc(C)c1NC(=O)NN(C(=O)c1ccccc1)C(C)(C)C,"inconclusive: 89.1 µM [inhibitor, single point]",
COc1ccc(C(c2c(C)[nH][nH]c2=O)c2c(C)[nH][nH]c2=O)cc1Br,"inconclusive: 79.4 µM [inhibitor, single point]",
CCc1ccc(S(=O)(=O)N2CCN(c3ccccc3OC)CC2)cc1,,inactive: -1.7%
Cn1c(O)c(N=NC(N)=S)c2ccccc21,"inconclusive: 89.1 µM [inhibitor, single point]",
O=C(CCn1ccc2cc(S(=O)(=O)N3CCCC3)ccc21)NCc1cccc(F)c1,"inconclusive: 35.5 µM [inhibitor, single point]",
N#C/C(=C\c1ccc(OCc2ccccc2)cc1)C(N)=O,"inconclusive: 89.1 µM [inhibitor, single point]",
O=C(Cc1cn2ccsc2n1)Nc1ccccn1,"inconclusive: 25.1 µM [inhibitor, partial curve, poor fit]",
Cc1cccc([C@H]2[C@@H]3C=CCC[C@@]3(C)C(=O)N2Cc2ccccc2)c1,"inconclusive: 44.7 µM [inhibitor, partial curve, poor fit]",
Cc1ccc(C(=O)/C=C/c2ccc(Br)cc2)o1,"inconclusive: 56.2 µM [inhibitor, partial curve, poor fit]",
CCOC(=O)c1c(C)[nH]c(C)c1C(=O)COc1ncnc2ccccc12,"inconclusive: 22.4 µM [inhibitor, partial curve, poor fit]",
Cc1ccc(C)c(NC(=S)NNC(=S)Nc2ccc(C(C)C)cc2)c1,active: 35.5 µM,
COC(=O)C(=C/C=C/c1ccco1)C(=O)OC,,inactive: -6.51%
Cc1cc(C)c2oc(C(=O)Nc3sc4c(c3C(=O)NCc3ccco3)CCCC4)cc(=O)c2c1,,inactive: -9.54%
O=S(=O)(NCCN1CCOCC1)c1ccc(F)c(Cl)c1,"inconclusive: 39.8 µM [inhibitor, partial curve, poor fit]",
CCOC(=O)C1CCN(c2nc(N)c3c(N)nc(SCC(=O)O)cc3c2C#N)CC1,"inconclusive: 35.5 µM [inhibitor, single point]",
O=C1N=C(c2ccccc2)S/C1=C\c1cccs1,"inconclusive: 70.8 µM [inhibitor, single point]",
CC(=O)C1=C(C)Nc2cc(C(F)(F)F)ccc2S1,"inconclusive: 89.1 µM [inhibitor, single point]",

# 2 compounds picked at random from the list so far:
Compound,Potency,"max response, negative = inhibition"
CCOC(=O)c1c(C)[nH]c(C)c1C(=O)COc1ncnc2ccccc12,"inconclusive: 22.4 µM [inhibitor, partial curve, poor fit]",
O=C(Cc1cn2ccsc2n1)Nc1ccccn1,"inconclusive: 25.1 µM [inhibitor, partial curve, poor fit]",
